Reference: paper PMC9425024
No constants are given. Whether binding was seen depends on the method and setting. Binding seen in cells or lysates may run through a third protein. Some entries that bind do so weakly or less than the wild type. Tags and fused reporters may be left off the sequences shown.

Target: T1, bZIP25-cYFP (UniProt Q9M1G6)
T1 sequence: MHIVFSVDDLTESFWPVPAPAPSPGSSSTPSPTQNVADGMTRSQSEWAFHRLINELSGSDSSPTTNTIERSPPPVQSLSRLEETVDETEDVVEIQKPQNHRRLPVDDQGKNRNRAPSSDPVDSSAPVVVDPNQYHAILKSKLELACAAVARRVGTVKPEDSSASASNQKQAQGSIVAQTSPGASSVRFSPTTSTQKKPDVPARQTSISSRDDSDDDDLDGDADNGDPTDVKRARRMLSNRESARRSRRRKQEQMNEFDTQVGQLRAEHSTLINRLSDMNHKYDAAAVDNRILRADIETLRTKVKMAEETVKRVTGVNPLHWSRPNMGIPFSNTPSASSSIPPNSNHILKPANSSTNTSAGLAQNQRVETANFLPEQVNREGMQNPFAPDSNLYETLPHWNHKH
Assay: split reporter; BiFC with split YFP (pA7-nYFP, pA7-cYFP, CaMV35S promoter), pairs cotransformed into A. thaliana Col-0 protoplasts, fluorescence microscopy; binder written here = nYFP fusion, target = cYFP fusion

B1: bZIP1 (protein, UniProt Q9FGX2 1-145)
chain: MANAEKTSSGSDIDEKKRKRKLSNRESARRSRLKKQKLMEDTIHEISSLERRIKENSERCRAVKQRLDSVETENAGLRSEKIWLSSYVSDLENMIATTSLTLTQSGGGDCVDDQNANAGIAVGDCRRTPWKLSCGSLQPMASFKT
- binding: binds
